Results reported in US6645594B1, “Formazan metal complex” (Kabushiki Kaisha Hayashibara Seibutsu Kagaku Kenkyujo, priority 1999, dated 2003).

Experiment: Improvement of light resistance of cyanine dye (xenon lamp exposure of coated glass substrate)
Details: 2 mg nickel complex with 10 mg and 5 mg cyanine dyes in 3 ml TFP, coated on glass; 500 W xenon lamp, 7 cm, 25 min; transmittance at 700 nm
Protocol: Then, in accordance with conventional manner, a prescribed amount of the solution was dropped on either side of a glass substrate, 5 cm×5 cm, which had been ground, followed by rotating the substrate at a rate of 1,000 rpm for one minute to homogeneously coat the solution on the substrate and drying the coated solution with sequential blows of hot air and cool air.
The resulting glass substrates coated with the light absorbents were measured for transmittance (T0) at a wavelength of 700 nm in a usual manner. Then, the substrates were fixed to a position 7 cm apart form a 500 W xenon lamp and exposed with the light of the lamp for 25 min while blowing cool air to the substrates, and then remeasured for transmittance (T) at a wavelength of 700 nm. The transmittance of T and T0 for each formazan metal complex were substituted for the Equation 1 to calculate the residual percentage (%) of each cyanine dye. In parallel, there provided a system using, as a light-resistant improver, a conventional nickel complex having any one of the formazan metal complexes represented by Chemical Formulae 48 and 49 in place of the above formazan metal complexes of the present invention; and a system with no light-resistant improver. These systems as controls were treated similarly as above (hereinafter called “control 1”, “control 2”, and “control 3”).

SMILES | Residual percentage (%) of cyanine dye [%]
O=[N+]([O-])c1ccc(NN=C(N=Nc2ccccc2)c2cccnc2)nc1 [Chemical Formula 8] | 98.4
O=[N+]([O-])c1ccc(NN=C(N=Nc2ccccc2)c2ccccc2)nc1 [Chemical Formula 49, reference compound] | 66.5
COc1ccc(OC)c(N=NC(=NNc2ccccn2)c2cccnc2)c1 [Chemical Formula 3] | 98.6
c1ccc(N=NC(=NNc2ccccn2)c2cccnc2)cc1 [Chemical Formula 2] | 94.4
COc1ccc(OC)c(N=NC(=NNc2ccc([N+](=O)[O-])cn2)c2ccccn2)c1 [Chemical Formula 20] | 97.6
c1ccc(N=NC(=NNc2ccccc2)c2cccnc2)cc1 [Chemical Formula 48, reference compound] | 85.4
CCC(C)C(N=Nc1cc(OC)ccc1OC)=NNc1ccc([N+](=O)[O-])cn1 (stereo not shown) [Chemical Formula 40] | 97.2
